The target of experiment [1] is 5-hydroxytryptamine receptor 2A (Homo sapiens, UniProt P28223).
Experiment [2] concerns the target 5-hydroxytryptamine receptor 2A (Rattus norvegicus, UniProt P14842).

By UniProt entry, the sequences of proteins in these tests, tags left out.
UniProt P28223, whole entry: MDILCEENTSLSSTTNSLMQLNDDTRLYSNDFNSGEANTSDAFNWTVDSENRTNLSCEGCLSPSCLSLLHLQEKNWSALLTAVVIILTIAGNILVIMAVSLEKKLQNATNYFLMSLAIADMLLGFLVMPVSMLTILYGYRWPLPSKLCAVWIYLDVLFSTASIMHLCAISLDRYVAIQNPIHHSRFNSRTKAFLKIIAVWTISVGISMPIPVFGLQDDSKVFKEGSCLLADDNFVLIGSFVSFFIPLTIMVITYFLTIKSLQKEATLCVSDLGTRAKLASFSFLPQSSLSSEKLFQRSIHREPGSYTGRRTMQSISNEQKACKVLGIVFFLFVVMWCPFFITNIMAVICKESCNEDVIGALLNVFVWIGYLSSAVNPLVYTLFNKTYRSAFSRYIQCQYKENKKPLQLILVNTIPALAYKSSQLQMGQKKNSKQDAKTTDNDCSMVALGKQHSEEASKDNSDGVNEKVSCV
UniProt P14842, whole entry: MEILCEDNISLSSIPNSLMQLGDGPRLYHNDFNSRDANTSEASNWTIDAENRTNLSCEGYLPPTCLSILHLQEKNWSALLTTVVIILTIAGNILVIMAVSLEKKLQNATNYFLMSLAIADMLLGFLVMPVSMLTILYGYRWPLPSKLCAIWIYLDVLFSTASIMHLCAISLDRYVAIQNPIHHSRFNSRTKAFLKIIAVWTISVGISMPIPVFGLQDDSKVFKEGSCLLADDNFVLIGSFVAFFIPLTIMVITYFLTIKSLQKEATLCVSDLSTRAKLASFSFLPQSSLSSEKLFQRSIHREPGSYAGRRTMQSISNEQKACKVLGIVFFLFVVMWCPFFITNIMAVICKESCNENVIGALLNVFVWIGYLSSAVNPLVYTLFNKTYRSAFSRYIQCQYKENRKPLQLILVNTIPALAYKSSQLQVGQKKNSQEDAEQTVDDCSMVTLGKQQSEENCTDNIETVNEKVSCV

A word on the Ki: it is a dissociation constant, usually derived from enzyme kinetics or from competition with a known ligand. The low end stands for higher affinity, the high end for lower affinity.

Turning to `COc1cc(C(C)=O)ccc1OCCCN1CCC(c2noc3cc(F)ccc23)CC1`, in experiment [1], affinity was put at a Ki of 0.12 nM. In turn, `OCCOCCN1CCN(C2=Nc3ccccc3Sc3ccccc32)CC1` [2-[2-(4-dibenzo[b,f][1,4]thiazepin-11-ylpiperazin-1-yl)ethoxy]ethanol] had an inhibition constant Ki in experiment [2] of 110 nM.

The record behind these values is BindingDB's records for doi:10.1038/sj.mp.4000336 (University of Toronto, 1998).
